Results taken from US6489307B1, “Antisense compositions targeted to β1-adrenoceptor-specific mRNA and methods of use” (University of Florida, priority 1998, dated 2002).
The name of at least one read-out is uncertain.

By UniProt entry, the sequences of proteins in these tests, tags left out.
UniProt P18090, whole entry: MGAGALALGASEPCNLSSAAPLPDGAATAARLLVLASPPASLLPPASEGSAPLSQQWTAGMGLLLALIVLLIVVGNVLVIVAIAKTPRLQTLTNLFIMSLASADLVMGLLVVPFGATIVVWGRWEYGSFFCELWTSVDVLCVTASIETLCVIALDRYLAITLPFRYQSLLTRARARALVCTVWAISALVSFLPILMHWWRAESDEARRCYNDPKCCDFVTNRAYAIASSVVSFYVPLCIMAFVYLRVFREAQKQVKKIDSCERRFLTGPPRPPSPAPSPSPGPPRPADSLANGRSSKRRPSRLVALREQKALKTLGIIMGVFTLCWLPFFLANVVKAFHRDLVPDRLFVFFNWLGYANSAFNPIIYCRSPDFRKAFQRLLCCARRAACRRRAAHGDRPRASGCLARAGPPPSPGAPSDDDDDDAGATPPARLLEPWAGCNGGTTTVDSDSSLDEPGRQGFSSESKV
UniProt P10608, whole entry: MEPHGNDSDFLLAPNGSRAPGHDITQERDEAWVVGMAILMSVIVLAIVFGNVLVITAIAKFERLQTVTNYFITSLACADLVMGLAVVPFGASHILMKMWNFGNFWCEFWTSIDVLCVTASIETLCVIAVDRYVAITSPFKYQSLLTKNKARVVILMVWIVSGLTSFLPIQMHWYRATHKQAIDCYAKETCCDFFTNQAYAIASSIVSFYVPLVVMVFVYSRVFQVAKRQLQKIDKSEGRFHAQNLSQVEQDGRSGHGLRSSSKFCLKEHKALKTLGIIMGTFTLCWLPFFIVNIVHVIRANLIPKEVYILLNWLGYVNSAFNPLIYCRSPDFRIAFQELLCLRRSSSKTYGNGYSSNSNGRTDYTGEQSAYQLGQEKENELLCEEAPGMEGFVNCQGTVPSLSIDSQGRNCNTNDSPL

Key:
Assay in all cases: β-AR binding assay (ICYP saturation) on heart ventricle membranes after i.v. injection
Type in all cases: in vivo, rat (SHR)
Total (β1+β2) β-ARs = tested on: Total (β1+β2) β-ARs
Description: (§1) Four days after intravenous injection of saline (n=6) or 1 mg/kg inverted ODN (n=6) or 2, 4, 10 or 18 days after injection of 1 mg/kg β1-AS-ODN (n=24), animals were euthanized, and membranes were prepared from heart ventricles as previously described (Baker and Pitha, 1982). For saturation experiments, 100 μg membrane protein was incubated in triplicate with 6 concentrations of [^125I](^−)-iodocyanopindolol (ICYP, NEN Life Science, 6.25 to 100 pmol/L) in a total volume of 250 μL containing 50 mmol/L Tris-HCl (pH 7.4), 5 mmol/L MgCl2 at 36° C. for 60 minutes. The nonspecific and β2-AR-binding levels were determined in the presence of 1 μmol/L (±)-alprenolol and 150 nmol/L CGP20712A (RBI), respectively. Then the reaction mixture was passed through Whatman (GF/B glass fiber filter using a Brandel harvester, and the bound radioactivity was counted for 1 min.
(§2) Four days after intravenous injection of saline (n=6) or 1 mg/kg inverted ODN (n=6), or 2, 4, 10, 18 days after injection of 1 mg/kg β1-AS-ODN (n=24), animals were sacrificed and membranes were prepared from heart ventricles as previously described (Baker and Pitha, 1982). For saturation studies, 100 μg membrane protein was incubated in triplicate with six concentrations of ^125I-(−)iodocyanopindolol (I-CYP, NEN Life Science, 6.25-100 pM) in a total volume of 250 μl containing 50 mM Tris-HCl (pH 7.4), 5 mM MgCl2 at 36° C. for 60 min. The nonspecific and β2-adrenoceptor binding levels were determined in the presence of 1 μM (±)-alprenolol and 150 nM CGP20712A (RBI), respectively. Then the reaction mixture was passed through Whatman GF/B glass fiber filter using Brandel harvester and the bound radioactivity was counted for one min.

β1-ARs = molecular target: T1, β1-ARs (Rattus norvegicus, UniProt P18090)
T1 construct: membranes were prepared from heart ventricles as previously described; from tissue; host or cells: heart ventricles of SHR
Description: as §1, §2

β2-ARs = molecular target: T2, β2-ARs (Rattus norvegicus, UniProt P10608)
T2 construct: membranes were prepared from heart ventricles as previously described; from tissue; host or cells: heart ventricles of SHR
Description: as §1, §2

[1] = cardiac ventricles of SHR 4 days after treatment (1 mg/kg i.v.)
[2] = cardiac ventricles of SHRs 4 days after treatment (1 mg/kg i.v.)

5′-AGCCGTACCCGCGCC-3′ (phosphorothioate backbone, further chemistry not given here) [Inverted ODN, 15-mer inverted ODN control, reference compound]
Kd (Total (β1+β2) β-ARs; [1]): 0.0571 ± 0.0035 nM
Kd (Total (β1+β2) β-ARs; [2]): 0.0571 ± 0.0035 nM
Kd (β1-ARs; [1]): 0.066 ± 0.001 nM
Kd (β1-ARs; [2]): 0.066 ± 0.001 nM
Kd (β2-ARs; [1]): 0.032 ± 0.0024 nM
Kd (β2-ARs; [2]): 0.032 ± 0.0024 nM
